In PubChem BioAssay AID248 (DTP/NCI, 2004):
The list is a part of this screen's results and no random one: it gathers tests that were run many times, whatever their T/C, doses with no T/C, and many T/C values between a quarter and a half above the control. Other doses and runs of a compound stand elsewhere. T/C: endpoint of the treated group in % of that of the vehicle group. Some doses have a count of surviving animals in place of a T/C: the source files T/C as zero there, which appears to mark a toxic dose or a test without result, not a measured value. Some survivor counts are full or nearly so, which does not show that the dose was tolerated: survival well below the control is almost never listed, so the zero probably covers shortened survival too. Counts of survivors are from the toxicity check (mostly the fifth day) where no day follows; animals may have died later. Schedule codes are those of the source, read here as Q, the interval in days (D) or hours (H), X, the number of doses. For survival time, this PubChem deposit counts one and a half times the control or more as active, and values a quarter to a half above the control carry no call in these data; other NCI protocols may use other cut-offs. Some T/C values carry the count of animals alive at the toxicity check (mostly the fifth day); where none is given, no animal had died by that day.

System: L1210 leukemia ip in BDF1 mice, survival T/C
Assay: NCI In Vivo Anticancer Drug Screen. Data for tumor model L1210 Leukemia (intraperitoneal) in B6D2F1 (BDF1) mice
Settings: higher T/C = longer survival
[1] = T/C endpoint: mean survival time, dose: 200.0 mg/kg/injection, schedule: Q01DX001 (ip), vehicle: saline
[2] = T/C endpoint: mean survival time, dose: 400.0 mg/kg/injection, schedule: Q01DX001 (ip), vehicle: saline
[3] = T/C endpoint: mean survival time, dose: 200.0 mg/kg/injection, schedule: Q01DX001 (ip), vehicle: saline with Tween-80
[4] = T/C endpoint: mean survival time, dose: 400.0 mg/kg/injection, schedule: Q01DX001 (ip), vehicle: saline with Tween-80
[5] = T/C endpoint: mean survival time, dose: 400.0 mg/kg/injection, schedule: Q01DX009 (ip), vehicle: Klucel (hydroxypropylcellulose) (HPC)
[6] = T/C endpoint: mean survival time, dose: 400.0 mg/kg/injection, schedule: Q04DX003 (ip), vehicle: saline

BrCCCC[P+](c1ccccc1)(c1ccccc1)c1ccccc1
survivor count (T/C endpoint: mean survival time, dose: 100.0 mg/kg/injection, schedule: Q04DX003 (ip), vehicle: Klucel (hydroxypropylcellulose) (HPC)): 0 of 3 | survivor count [1]: 0 of 4 | survivor count (T/C endpoint: mean survival time, dose: 200.0 mg/kg/injection, schedule: Q04DX003 (ip), vehicle: Klucel (hydroxypropylcellulose) (HPC)): 1 of 3 | survivor count [2]: 0 of 4 | survivor count (T/C endpoint: mean survival time, dose: 400.0 mg/kg/injection, schedule: Q04DX003 (ip), vehicle: Klucel (hydroxypropylcellulose) (HPC)): 0 of 3

CCCCCCCCCCCCCCCCOc1ccc(S(=O)(=O)c2ccccc2)cc1[N+](=O)[O-]
survivor count (T/C endpoint: mean survival time, dose: 100.0 mg/kg/injection, schedule: Q01DX009 (ip), vehicle: saline sonified): 6 of 6 | survivor count (T/C endpoint: mean survival time, dose: 200.0 mg/kg/injection, schedule: Q01DX009 (ip), vehicle: saline sonified): 6 of 6

c1cc[c]([Pb]([S]c2ncnc3c2nc[n]3[Pb]([c]2ccccc2)([c]2ccccc2)[c]2ccccc2)([c]2ccccc2)[c]2ccccc2)cc1.c1cc[c]([Pb]([S]c2ncnc3nc[nH]c23)([c]2ccccc2)[c]2ccccc2)cc1
survivor count (T/C endpoint: mean survival time, dose: 20.0 mg/kg/injection, schedule: Q01DX001 (ip), vehicle: other): 1 of 6 | survivor count (T/C endpoint: mean survival time, dose: 40.0 mg/kg/injection, schedule: Q01DX001 (ip), vehicle: other): 0 of 6 | survivor count (T/C endpoint: mean survival time, dose: 80.0 mg/kg/injection, schedule: Q01DX001 (ip), vehicle: other): 0 of 6 | survivor count (T/C endpoint: mean survival time, dose: 100.0 mg/kg/injection, schedule: Q01DX001 (ip), vehicle: other): 2 of 6 | survivor count (T/C endpoint: mean survival time, dose: 200.0 mg/kg/injection, schedule: Q01DX001 (ip), vehicle: other): 0 of 6 | survivor count (T/C endpoint: mean survival time, dose: 400.0 mg/kg/injection, schedule: Q01DX001 (ip), vehicle: other): 0 of 6

O=c1[nH]nnc2nc(Cc3ccc([N+](=O)[O-])cc3)[nH]c12
survivor count [3]: 3 of 6 | survivor count [4]: 2 of 6

CCCCOC(=O)c1ccc(OC(=O)Nc2cccc(Cl)c2)cc1
survivor count (T/C endpoint: mean survival time, dose: 100.0 mg/kg/injection, schedule: Q01DX009 (ip), vehicle: Klucel (hydroxypropylcellulose) (HPC)): 3 of 6 | survivor count [5]: 2 of 6

Cc1ccc(SCCCN)cc1
survivor count (T/C endpoint: mean survival time, dose: 300.0 mg/kg/injection, schedule: Q01DX001 (ip), vehicle: saline): 1 of 6

CN1CCC(C#N)(c2ccccn2)CC1
survivor count (T/C endpoint: mean survival time, dose: 100.0 mg/kg/injection, schedule: Q01DX001 (ip), vehicle: saline with Tween-80): 0 of 6 | survivor count [3]: 0 of 6 | survivor count [4]: 0 of 6

OCCCCCCCCCCCC[n+]1ccc(Cc2ccccc2)cc1
survivor count (T/C endpoint: mean survival time, dose: 75.0 mg/kg/injection, schedule: Q01DX001 (ip), vehicle: Klucel (hydroxypropylcellulose) (HPC)): 2 of 6 | survivor count (T/C endpoint: mean survival time, dose: 150.0 mg/kg/injection, schedule: Q01DX001 (ip), vehicle: Klucel (hydroxypropylcellulose) (HPC)): 0 of 6 | survivor count (T/C endpoint: mean survival time, dose: 300.0 mg/kg/injection, schedule: Q01DX001 (ip), vehicle: Klucel (hydroxypropylcellulose) (HPC)): 0 of 6

COc1ccc(N=NN(C)C)cc1
survivor count (T/C endpoint: mean survival time, dose: 75.0 mg/kg/injection, schedule: Q01DX001 (ip), vehicle: saline with Tween-80): 5 of 10 | survivor count (T/C endpoint: mean survival time, dose: 150.0 mg/kg/injection, schedule: Q01DX001 (ip), vehicle: saline with Tween-80): 0 of 10

Cc1ccc[n+](CCCCCCCC[n+]2cccc(C)c2)c1
survivor count (T/C endpoint: mean survival time, dose: 100.0 mg/kg/injection, schedule: Q04DX003 (ip), vehicle: saline): 0 of 6 | survivor count (T/C endpoint: mean survival time, dose: 200.0 mg/kg/injection, schedule: Q04DX003 (ip), vehicle: saline): 0 of 6 | survivor count [6]: 0 of 6

O=S(=O)(O)/C(=C\c1ccccc1)c1ccccc1 (tested in a mixture with another compound)
T/C (T/C endpoint: mean survival time, dose: 400.0 mg/kg/injection, schedule: Q04DX003 (ip), vehicle: other): 132 % of control [4 of 6 alive] | survivor count (T/C endpoint: mean survival time, dose: 600.0 mg/kg/injection, schedule: Q01DX001 (ip), vehicle: other): 1 of 6

C/C=C(/C)C(=O)O[C@H]1CC[C@@]2(C)[C@@H]3CC[C@H]4[C@]5(O)C[C@H](O)[C@@]6(O)[C@@H](CN7C[C@@H](C)CC[C@H]7[C@@]6(C)O)[C@]5(O)C[C@@]42O[C@@]13O
survivor count (T/C endpoint: mean survival time, dose: 3.0 mg/kg/injection, schedule: Q04DX003 (ip), vehicle: saline with Tween-80): 2 of 6 | survivor count (T/C endpoint: mean survival time, dose: 6.0 mg/kg/injection, schedule: Q04DX003 (ip), vehicle: saline with Tween-80): 0 of 6 | survivor count (T/C endpoint: mean survival time, dose: 8.0 mg/kg/injection, schedule: Q01DX001 (ip), vehicle: saline): 1 of 6 | survivor count (T/C endpoint: mean survival time, dose: 10.0 mg/kg/injection, schedule: Q01DX001 (ip), vehicle: saline): 2 of 6 | survivor count (T/C endpoint: mean survival time, dose: 20.0 mg/kg/injection, schedule: Q01DX001 (ip), vehicle: saline): 0 of 6 | survivor count (T/C endpoint: mean survival time, dose: 40.0 mg/kg/injection, schedule: Q01DX001 (ip), vehicle: saline): 0 of 6 | survivor count (T/C endpoint: mean survival time, dose: 80.0 mg/kg/injection, schedule: Q01DX001 (ip), vehicle: saline): 0 of 6 | survivor count (T/C endpoint: mean survival time, dose: 100.0 mg/kg/injection, schedule: Q01DX001 (ip), vehicle: saline): 0 of 4 | survivor count [1]: 0 of 4 | survivor count [2]: 0 of 4

Cc1cc2nc(CBr)c(CBr)nc2cc1C
survivor count (T/C endpoint: mean survival time, dose: 25.0 mg/kg/injection, schedule: Q04DX003 (ip), vehicle: saline with Tween-80): 4 of 6 | survivor count (T/C endpoint: mean survival time, dose: 50.0 mg/kg/injection, schedule: Q04DX003 (ip), vehicle: saline with Tween-80): 0 of 6 | survivor count (T/C endpoint: mean survival time, dose: 100.0 mg/kg/injection, schedule: Q04DX003 (ip), vehicle: saline with Tween-80): 4 of 6 | survivor count (T/C endpoint: mean survival time, dose: 200.0 mg/kg/injection, schedule: Q04DX003 (ip), vehicle: saline with Tween-80): 0 of 6 | survivor count (T/C endpoint: mean survival time, dose: 400.0 mg/kg/injection, schedule: Q04DX003 (ip), vehicle: saline with Tween-80): 0 of 6

O=C(NNC(=S)NC1CC2C=CC1C2)c1cccnc1 (stereo not drawn)
survivor count [5]: 0 of 6

C=CCOCC(O)CN(C)CC1CCCO1 (stereo not drawn)
survivor count (T/C endpoint: mean survival time, dose: 400.0 mg/kg/injection, schedule: Q01DX009 (ip), vehicle: saline): 0 of 6 | survivor count [6]: 2 of 6

COc1cccc2c1C(=O)c1c(O)c3c(c(O)c1C2=O)CC(O)(C(=O)CO)CC3OC1CC(N)C(O)C(C)O1 (stereo not drawn)
T/C (T/C endpoint: mean survival time, dose: 0.25 mg/kg/injection, schedule: Q01DX008 (ip), vehicle: saline): 141 % of control | survivor count (T/C endpoint: mean survival time, dose: 8.0 mg/kg/injection, schedule: Q01DX008 (ip), vehicle: saline): 8 of 8 | T/C (T/C endpoint: median survival time, dose: 2.4 mg/kg/injection, schedule: Q01DX005 (ip), vehicle: water): 133 % of control | T/C (T/C endpoint: median survival time, dose: 4.0 mg/kg/injection, schedule: Q01DX005 (ip), vehicle: water): 133 % of control | T/C (T/C endpoint: median survival time, dose: 6.6 mg/kg/injection, schedule: Q04DX003 (ip), vehicle: water): 133 % of control | T/C (T/C endpoint: median survival time, dose: 11.0 mg/kg/injection, schedule: Q01DX005 (ip), vehicle: water): 142 % of control | T/C (T/C endpoint: median survival time, dose: 11.0 mg/kg/injection, schedule: Q04DX003 (ip), vehicle: water): 138 % of control [9 of 10 alive] | T/C (T/C endpoint: median survival time, dose: 19.0 mg/kg/injection, schedule: Q01DX005 (ip), vehicle: water): 142 % of control | T/C (T/C endpoint: median survival time, dose: 21.0 mg/kg/injection, schedule: Q01DX005 (ip), vehicle: other, evaluated on day 5): 132 % of control | T/C (T/C endpoint: median survival time, dose: 21.0 mg/kg/injection, schedule: Q01DX005 (ip), vehicle: other, evaluated on day 31): 132 % of control | T/C (T/C endpoint: median survival time, dose: 31.0 mg/kg/injection, schedule: Q01DX005 (ip), vehicle: other, evaluated on day 5): 126 % of control | T/C (T/C endpoint: median survival time, dose: 31.0 mg/kg/injection, schedule: Q01DX005 (ip), vehicle: other, evaluated on day 31): 126 % of control | T/C (T/C endpoint: median survival time, dose: 31.0 mg/kg/injection, schedule: Q01DX005 (ip), vehicle: water): 147 % of control | T/C (T/C endpoint: median survival time, dose: 31.0 mg/kg/injection, schedule: Q04DX003 (ip), vehicle: water): 138 % of control | T/C (T/C endpoint: median survival time, dose: 41.0 mg/kg/injection, schedule: Q01DX005 (ip), vehicle: other, evaluated on day 5): 127 % of control | T/C (T/C endpoint: median survival time, dose: 41.0 mg/kg/injection, schedule: Q01DX005 (ip), vehicle: other, evaluated on day 31): 127 % of control | T/C (T/C endpoint: median survival time, dose: 52.0 mg/kg/injection, schedule: Q04DX003 (ip), vehicle: water): 147 % of control

Nc1n[nH]c(N)n1.[Pt]
survivor count (T/C endpoint: mean survival time, dose: 200.0 mg/kg/injection, schedule: Q01DX009 (ip), vehicle: saline): 5 of 6 | survivor count [6]: 2 of 6
